For some of these results: What follows is the remainder of the data, with few or none of the hits. Records with an inconclusive call do not appear. The list shows a part of the results, in another mix than the full data. Active and inactive are the calls of the source. Unless noted, calls follow the shape of the dose curve; as a rule, active = well fitted curve in the direction sought with a large enough effect in the repeat runs; inconclusive = weak or mixed curves; inactive = no such curve, though single readings can be large; an effect the other way counts as inactive or inconclusive.
Assays:
[1] = qHTS assay for small molecule activators of the heat shock response signaling pathway - cell viability counter screen (AID 743209); conditions: HSE-bla HeLa viability, CellTiter-Glo luminescence, 5 h; also: % is scaled to controls: 0 for no effect and ±100 for the full control effect; nearly all actives have a fitted effect of over 50% in size
How it was run: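 Compounds dissolved in DMSO were added to overnight-plated HSE-bla HeLa cells and left 5 h at 37 C. Cell viability was quantified by luminescence using CellTiter-Glo.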

Sequences of proteins named here, by UniProt entry; tags and fusion partners are left off. A change or cut given only in a name is not applied to a line headed by its entry.
UniProt Q14994: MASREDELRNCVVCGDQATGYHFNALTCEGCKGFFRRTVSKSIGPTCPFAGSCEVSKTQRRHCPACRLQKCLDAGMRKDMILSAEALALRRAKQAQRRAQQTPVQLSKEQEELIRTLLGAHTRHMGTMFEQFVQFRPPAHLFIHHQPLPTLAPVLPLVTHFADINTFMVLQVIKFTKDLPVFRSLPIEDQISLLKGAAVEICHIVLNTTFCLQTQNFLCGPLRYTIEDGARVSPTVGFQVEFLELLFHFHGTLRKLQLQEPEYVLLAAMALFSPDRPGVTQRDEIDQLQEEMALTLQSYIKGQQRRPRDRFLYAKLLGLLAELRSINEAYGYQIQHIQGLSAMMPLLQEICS

[2] = qHTS assay to identify small molecule antagonists of the peroxisome proliferator-activated receptor delta (PPARd) signaling pathway - cell viability counter screen (AID 743213); conditions: PPARd-bla HEK293H viability, CellTiter-Glo luminescence, 17 h; at 62 µM (top of the series); also: % is scaled to controls: 0 for no effect and ±100 for the full control effect; nearly all actives have a fitted effect of over 50% in size
How it was run: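 Luminescence from CellTiter-Glo, added after the bla read and incubated 30 min at room temperature, gives viability of HEK293H PPARd-bla cells exposed to compounds for 17 h at 37 C with 300 nM L165041.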

[3] = qHTS assay to identify small molecule antagonists of the farnesoid-X-receptor (FXR) signaling pathway - cell viability counter screen (AID 743221; active = well fitted cell-killing curve with a large enough effect in the repeat runs, not every such curve was filed as active; also: % is scaled to controls: 0 for no effect and ±100 for the full control effect; nearly all actives have a fitted effect of over 50% in size); conditions: FXR-bla HEK293T viability, CellTiter-Glo luminescence, 16 h; at 62.6 µM (top of the series) unless noted
How it was run: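 CellTiter-Glo, 30 min RT, luminescence; same wells as the LiveBLAzer FRET read. Cells: FXR-UAS-bla HEK 293T. Treatment: compound with chenodeoxycholic acid 50 uM final, 16 h at 37 C.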

[4] = qHTS assay to identify small molecule agonists of the AP-1 signaling pathway - cell viability counter screen (AID 1159525; calls by dose curve; also: nearly all actives have a fitted effect of over 55% in size); conditions: ME-180 (cervical carcinoma) AP-1-bla cells viability, ATP luminescence, 5 h; at 76.8 µM (top of the series)
How it was run: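 Each titration point was normalised to DMSO and tetra n-octyl ammonium bromide controls. The read was Cell Titer Glo luminescence after 30 min at RT, following 5 h compound exposure of ME-180 AP-1-bla cells at 37 °C.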

[5] = qHTS assay to identify small molecule agonists of the RXR signaling pathway - cell viability counter screen (AID 1159529); conditions: RXR-alpha-bla HEK293T viability, CellTiter-Glo, 16 h; at 76.8 µM (top of the series); also: % is scaled to controls: 0 for no effect and ±100 for the full control effect; nearly all actives have a fitted effect of over 50% in size
How it was run: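 Tox21 10K compounds were tested for cytotoxicity against GeneBLAzer RXR-alpha HEK 293T cells grown in 2% charcoal-stripped FBS. Exposure lasted 16 hr at 37 C, 5% CO2; viability read by CellTiter-Glo luminescence.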

[6] = qHTS assay to identify small molecule antagonists of the retinoic acid receptor (RAR) signaling pathway (AID 1159552; also: nearly all actives have a fitted effect of over 50% in size; also: potency is read from the fitted curve at half-maximal effect; as to activity, negative = inhibition: % is scaled to controls: 0 for no effect and ±100 for the full control effect); conditions: C3RL4 RARE luciferase reporter, retinol-stimulated, 6 h; series mostly up to 92.4 µM
How it was run: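 Overnight-plated C3RL4 reporter cells get compound, then retinol to 1 uM final; plates sit 6 hr at 37 C, 5% CO2. A luciferase reagent is added and light output recorded after 30 min at room temperature.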

[7] = qHTS assay to identify small molecule agonists of the retinoic acid receptor (RAR) signaling pathway (AID 1159553); conditions: C3RL4 RARE luciferase reporter, agonist, 6 h; at 73.3 µM (top of the series); also: % is scaled to controls: 0 for no effect and ±100 for the full control effect
How it was run: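 In this cell-based screen, 1,000 C3RL4 cells per well were cultured overnight, dosed with test chemicals in DMSO for 6 hr, and assessed for RARE luciferase luminescence.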

[8] = qHTS assay to identify small molecule antagonists of the estrogen related receptor (ERR) signaling pathway - cell viability counter screen (AID 1224818); conditions: ERR reporter cell line viability counter screen; at 92.2 µM (top of the series); also: % is scaled to controls: 0 for no effect and ±100 for the full control effect
How it was run: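 Viability of ERR cells, CellTiter-Fluor fluorescence; 17.5 h compound exposure at 37 C, DMSO vehicle; 30 min reagent incubation at 37 C/5% CO2.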

[9] = qHTS assay to identify small molecule antagonists of the estrogen related receptor signaling pathway with the pleiotropic PPARgamma coactivator (PGC) cell viability counter screen (AID 1224822; also: % is scaled to controls: 0 for no effect and ±100 for the full control effect); conditions: ERR/PGC reporter cell line viability counter screen; at 92.2 µM (top of the series)
How it was run: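 17.5 h compound treatment of PGC/ERR cells at 37 C; readout CellTiter-Fluor fluorescence; run alongside the PGC/ERR antagonist screen to flag cytotoxic compounds.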

[10] = target: Nuclear receptor subfamily 1 group I member 3 (Homo sapiens) (UniProt Q14994); test: qHTS assay to identify small molecule antagonists of the constitutive androstane receptor (CAR) signaling pathway (AID 1224838); conditions: HepG2-CYP2B6-hCAR luciferase, CITCO-stimulated, 24 h; at 92.4 µM (top of the series); also: % is scaled to controls: 0 for no effect and ±100 for the full control effect; nearly all actives have a fitted effect of over 40% in size
How it was run: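 Inhibition of CITCO-driven (50 nM final) CYP2B6 reporter expression is measured in HepG2 cells stably carrying hCAR. Fifteen compound concentrations are applied for 24 h at 37 C, followed by luciferase luminescence.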

[11] = target: Nuclear receptor subfamily 1 group I member 3 (Homo sapiens) (UniProt Q14994); test: qHTS assay to identify small molecule agonists of the constitutive androstane receptor (CAR) signaling pathway (AID 1224839); conditions: HepG2 hCAR CYP2B6-luciferase, agonist mode, 24 h; series mostly up to 92.4 µM; also: nearly all actives have a fitted effect of over 15% in size; also: potency is read from the fitted curve at half-maximal effect
How it was run: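 Stable hCAR/CYP2B6-2.2kb HepG2 line in DMEM with 10% FBS; compounds (15 concentrations) and 0.75 uM PK11195 final, 24 h at 37 C/5% CO2, then ONE-Glo luminescence after 30 min.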

[12] = qHTS assay to identify small molecule agonists of the peroxisome proliferator-activated receptor delta (PPARd) signaling pathway - cell viability counter screen (AID 743211); conditions: PPARd-bla HEK293H viability, CellTiter-Glo luminescence, 17 h; at 62.6 µM (top of the series); also: % is scaled to controls: 0 for no effect and ±100 for the full control effect; nearly all actives have a fitted effect of over 55% in size
How it was run: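 Multiplexed format: after the 2 h room-temperature LiveBLAzer B/G FRET step, CellTiter-Glo was added to the same wells. Luminescence after 30 min gave cell viability; compound exposure was 17 h at 37C.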

[13] = qHTS assay to identify small molecule agonists of the farnesoid-X-receptor (FXR) signaling pathway - cell viability counter screen (AID 743218); conditions: FXR-bla HEK293T viability, CellTiter-Glo luminescence, 16 h; at 62.6 µM (top of the series); also: % is scaled to controls: 0 for no effect and ±100 for the full control effect; nearly all actives have a fitted effect of over 45% in size
How it was run: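 Quantitative HTS counter screen measuring ATP-based viability via CellTiter-Glo luminescence in HEK 293T cells carrying a UAS-driven beta-lactamase reporter, after 16 h compound exposure at 37 C.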

[14] = qHTS assay to identify small molecule agonists of the endoplasmic reticulum stress response signaling pathway - cell viability counter screen (AID 1159517; calls by dose curve); conditions: ESRE-bla HeLa viability, CellTiter-Glo luminescence, 5 h; at 61 µM (top of the series)
How it was run: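 Cytotoxicity of test compounds toward ESRE-bla HeLa cells was assessed after 5 hr exposure. The luminescent CellTiter-Glo signal was measured 30 min after reagent addition.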

[15] = qHTS assay to identify small molecule antagonists of the retinoid-related orphan receptor gamma (ROR-gamma) signaling pathway - cell viability counter screen (AID 1159520); conditions: Tet-on RORgamma CHO cells viability, ATP luminescence, 16 h; at 92.4 µM (top of the series)
How it was run: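 Tet-on ROR gamma CHO cells (1,000/well) were plated 4 hr, given compounds in DMSO for 2 hr at 37 C, then induced with 1 uM final doxycycline for 16 hr. Viability was read as ATP by CellTiter-Glo luminescence after 30 min.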

[16] = qHTS assay to identify small molecule antagonists of the retinoid acid receptor (RAR) signaling pathway - cell viability counter screen (AID 1159551); conditions: C3RL4 cells viability, ATP luminescence (CellTiter-Glo), 6 h; at 92.4 µM (top of the series); also: % is scaled to controls: 0 for no effect and ±100 for the full control effect; nearly all actives have a fitted effect of over 35% in size
How it was run: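 In this counter screen, the RARE-luciferase line C3RL4 was exposed for 6 h at 37 C and 5% CO2 to compounds with retinol at 1 uM final. Cellular ATP, read by luminescence, served as the viability measure.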

[17] = qHTS assay to identify small molecule antagonists of the estrogen related receptor signaling pathway with the pleiotropic PPARgamma coactivator (PGC) from Tox21 10K library (AID 1224841; call rule not given here); conditions: PGC/ERR reporter cell line, ONE-Glo luciferase, 18 h; series mostly up to 92.4 µM
How it was run: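 One-Glo luminescence, measured after half an hour at room temperature, quantified reporter output of PGC/ERR cells. These had been plated at 2,000 per well, incubated 6 h, dosed with compounds in DMSO, then kept 18 h at 37 C.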

[18] = target: Nuclear receptor ROR-gamma (Homo sapiens) (UniProt P51449); test: qHTS assay to identify small molecule antagonists of the retinoid-related orphan receptor gamma (ROR-gamma) signaling pathway (AID 1159521); conditions: Tet-on RORgamma CHO cells, RORE-luciferase, 16 h; at 92.4 µM (top of the series)
How it was run: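 Readout: ONE-Glo luciferase luminescence, 30 min at room temperature. System: Tet-on RORγ CHO, RORE-LUC. Sequence: compound 2 h, doxycycline 1 uM final, 16 h at 37 C.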

[19] = qHTS assay to identify small molecule agonists of the constitutive androstane receptor (CAR) signaling pathway - cell viability counter screen (AID 1224836); conditions: HepG2-CYP2B6-hCAR viability, CellTiter-Fluor, 23 h, PK11195 added to every well; at 92.4 µM (top of the series); also: % is scaled to controls: 0 for no effect and ±100 for the full control effect; nearly all actives have a fitted effect of over 45% in size
How it was run: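 Fluorescence from CellTiter-Fluor indicates live cells after 23 h exposure. The human hepatoma line expresses hCAR and a CYP2B6-2.2kb reporter. Incubation medium contains 0.75 uM PK11195 (final).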

[20] = qHTS assay to identify small molecule antagonists of the constitutive androstane receptor (CAR) signaling pathway - cell viability counter screen (AID 1224837); conditions: HepG2-CYP2B6-hCAR viability, CellTiter-Fluor, 23 h, co-treated with 50 nM CITCO; at 92.4 µM (top of the series); also: % is scaled to controls: 0 for no effect and ±100 for the full control effect; nearly all actives have a fitted effect of over 45% in size
How it was run: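 CITCO at 50 nM final was added alongside compounds (15 concentrations) to double-stable hCAR/CYP2B6-2.2kb HepG2 cells. Following 23 hr at 37 C, cell viability was quantified by CellTiter-Fluor fluorescence intensity.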

Nc1ccc(N)c([N+](=O)[O-])c1
inactive: activity change, negative = cytotoxicity ([1]; at 81.1 µM (top of the series)) -20.6% | viability change, negative = cytotoxic [2] -20.3% | activity change, negative = cytotoxicity [3] 8.42% [at 81.1 µM] | viability change, negative = cytotoxic [4] -6.49% | activity change, negative = cytotoxicity [5] -5.5% | Potency [6] | activation [7] 7.38% | viability change, negative = cytotoxic [8] -28.6% | viability change, negative = cytotoxic [9] -15.1% | activity, negative = inhibition [10] 60.6%
active: Potency [11] 19.3 µM

CS(=O)(=O)c1ccc([C@@H](CC2CCCC2)C(=O)Nc2cnccn2)cc1Cl
active: Potency [6] 54.5 µM | Potency [17] 30.6 µM
inactive: activity change, negative = cytotoxicity ([1]; at 62.6 µM (top of the series)) 2.25% | activity change, negative = cytotoxicity [12] -1.49% | viability change, negative = cytotoxic [2] -11.5% | viability change, negative = cytotoxic [13] -10.9% | activity change, negative = cytotoxicity [3] 5.09% | activity change, negative = cytotoxicity [14] -11.4% | activity, negative = cytotoxicity [15] -1.65% | viability change, negative = cytotoxic [4] -9.6% | activity change, negative = cytotoxicity [5] -12.1% | activity change, negative = cytotoxicity [16] -6.22% | activation [7] 6.27% | activity, negative = inhibition [10] 35.6% | Potency [11]

O=C1Cc2ccccc2C1
inactive: activity, negative = cytotoxicity [15] 0.946% | activity change, negative = inhibition [18] 28.1% | viability change, negative = cytotoxic [4] -0.554% | activity change, negative = cytotoxicity [5] -8.67% | activity change, negative = cytotoxicity [16] -0.431% | viability change, negative = cytotoxic [19] -0.648% | activity change, negative = cytotoxicity [20] 2.15%
active: Potency [11] 54.5 µM
